Measured values reported in article PMC10899596.
Results are given in words; binding and its absence hold for the method and conditions named. For part of these data: Binding seen in cells or lysates may run through a third protein. Some results given as binding are weak or reduced against the parent protein; the word gives no strength.

Sequences of proteins named here, by UniProt entry; tags and fusion partners are left off. A change or cut given only in a name is not applied to a line headed by its entry. A line that says so, or that is headed by a name, gives the form on record, which may keep a tag or linker. Residues count along the entry.
UniProt Q9NZQ7: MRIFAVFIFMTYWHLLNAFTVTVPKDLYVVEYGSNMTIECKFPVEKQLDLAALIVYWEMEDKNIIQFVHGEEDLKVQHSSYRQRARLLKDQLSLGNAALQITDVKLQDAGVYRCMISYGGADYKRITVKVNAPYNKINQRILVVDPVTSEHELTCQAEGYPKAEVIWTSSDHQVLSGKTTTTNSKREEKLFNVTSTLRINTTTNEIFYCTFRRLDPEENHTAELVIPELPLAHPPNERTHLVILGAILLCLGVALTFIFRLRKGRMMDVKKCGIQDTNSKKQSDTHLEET
PD-L1-SF (PD-L1 tagged with SF): residues 19-290 of Q9NZQ7

Assays:
[1] = biological target: programmed death ligand-1 (PD-L1), endogenous (human (endogenous in H1299, H23 and HEK293T)) (UniProt Q9NZQ7); experiment: co-IP; endogenous proteins; H1299 and H23 lysates (NETN buffer) immunoprecipitated with IgG, KEAP1 or PD-L1 antibodies bound to Protein A/G agarose or magnetic beads, 1 hour at room temperature, 4 washes with NETN; immunoblotting
[2] = biological target: PD-L1-SF (PD-L1 tagged with SF) (UniProt Q9NZQ7); experiment: pull-down; HEK293T cells transfected with an SF-tagged construct; lysates (NETN buffer) incubated with S-protein agarose 4 hours at 4 °C, washed 4 times with NETN; immunoblotting with PD-L1 or KEAP1 antibodies
[3] = biological target: purified GST-KEAP1 protein (UniProt Q14145); experiment: pull-down; purified GST-KEAP1 and PD-L1-Flag incubated with GST-tag Purification Resin 4 hours at 4 °C, washed 3 times with PBS; immunoblotting; both purified

binding [2]	binding [3]	Substance	binding [1]
binds		Kelch-like ECH-associated protein 1 (KEAP1), endogenous (from UniProt Q14145 1-624) (other; other documents disagree on this pair)	binds
	binds	purified PD-L1-Flag protein (from UniProt Q9NZQ7 19-238)	
